Among the data in paper PMC8893665 are binding values, retold here.

The assay addresses T1, recombinant canonical histone H2B, His-tagged (Trypanosoma cruzi) (Trypanosoma cruzi (CL Brener strain)) (UniProt B5U6T3).
T1 sequence: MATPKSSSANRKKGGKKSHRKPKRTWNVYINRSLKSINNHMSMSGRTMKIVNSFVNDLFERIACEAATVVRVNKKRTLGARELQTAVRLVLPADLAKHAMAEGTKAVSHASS
In words: affinity purification with mass spectrometry; recombinant His-tagged H2B.V or canonical H2B (bait control) held on Ni-NTA agarose (30 min, 4°C), then 1 h with basic protein extracts of T. cruzi Y strain epimastigotes or TCTs; washed three times with TBS; eluted with 50 mM sodium phosphate, 0.3 M NaCl, 290 mM imidazole; LC-MS/MS; biological triplicates; hits filtered against control samples; only the target purified.

Results are given in words; binding and its absence hold for the method and conditions named. Binding seen in cells or lysates may run through a third protein. These calls come from enrichment with a bait or labelling near it, and not all partners need be listed. Sequences can lack the tags named with a protein.

For lupus La protein homolog, the binding entry was “binds”.

Turning to high mobility group protein TDP1, the binding result is listed as “binds”.

On to retrotransposon hot spot (RHS) protein, for which the binding result is “binds”.

Turning to tousled-like kinase II (enzyme), the binding result is “binds”.

Consider “polyadenylate-binding protein (from UniProt Q27335)”, for which the binding entry was “binds”.

Take double RNA binding domain protein 3: the binding entry is “binds”.
